Test results reported in patent publication US3972773 (dated 1976).
*: point of attachment. Cbz = O=C(OCc1ccccc1)*; Boc = CC(C)(C)OC(=O)*

Test: general procedure: solution-phase peptide synthesis; pepsin (enzymatic fragment condensation in citric acid buffer, pH 4.0)

| Substance | step yield (coupling step) [%] | other results |
| --- | --- | --- |
| 2HCl.H-Lys-Phe-Phe-Gly-Leu-Met-NH2 | – | step yield (late stage modification step, 2HCl): 78.0% |
| BOC-Asn-Ala-Phe-Ileu-Gly-Leu-Met-NH2 | 81.0 | – |
| BOC-Gly-Val-Phe-Phe-Gly-OC2 H5 | 45.1 | – |
| BOC-Pro-Val-Phe-Phe-Gly-OC2 H5 | 34.4 | – |
| Boc-Ala-Phe-Ileu-Gly-Leu-Met-NH2 | 63.3 | – |
| Boc-GVFF-OMe | – | step yield (coupling step, run 1): 71.2%; step yield (coupling step, run 2): 73.3%; step yield (coupling step, run 3): 68% |
| Cbz-PVFF-OMe | – | step yield (coupling step, run 1): 37.2%; step yield (coupling step, run 2): 51% |
| Z-Pro-Val-Phe-Phe-Gly-OC2 H5 | 67.2 | – |
| pMZ-Ala-Leu-Phe-Gly-OEt | 54.5 | – |
| pMZ-Ala-Phe-Ala-Phe-Ileu-Gly-OEt | 63 | – |
| pMZ-Ala-Phe-Ala-Phe-Leu-Met-NH-DMB | 70 | – |
| pMZ-Ala-Phe-Ileu-Gly-Leu-Met-NH2 | 90 | – |
| pMZ-Ala-Phe-Ileu-Gly-Leu-Met-NHDmB | 82.2 | – |
| pMZ-Ala-Phe-Leu-Met-NH2 | 63.3 | – |
| pMZ-Ala-Phe-Phe-Gly-Leu-Met-NH2 | 89.2 | – |
| pMZ-Ala-Phe-Phe-Gly-NHNH2 | 61.2 | – |
| pMZ-Ala-Phe-Phe-Gly-OCH3 | 94.9 | – |
| pMZ-Ala-Tyr-Phe-Gln-NHNH2 | 57.8 | – |
| pMZ-Gln-Ala-Phe-Ileu-Gly-Leu-Met-NH2 | 74.5 | – |
| pMZ-Gln-Phe-Phe-Gly-Leu-Met-NH2 | 77.5 | – |
| pMZ-Gly-Val-Phe-Phe-Gly-OC2 H5 | 75.0 | – |
| pMZ-Gly-Val-Phe-Phe-OCH3 | 74.3 | – |
| α, ω-Boc-Lys-Phe-Phe-Gly-Leu-Met-NH2 | 88.2 | – |
| α,ω-Boc-Lys-Phe-Ileu-Gly-Leu-Met-NH2 | 94.4 | – |
